Measured values: paper PMC4871572

B1: VPS51 (protein, UniProt F1M4I4 1-782)
chain: MAAAAAVGPGLGSGPGDSPEGSEADAPERRRKAHGMLKLYYGLSEGEATGHSAGSDPLDPTDLNGAHFDPEVYLDKLRRECPLAQLMDSETDMVRQIRALDSDMQTLVYENYNKFISATDTIRKMKNDFRKMEDEMDRLATNMAVITNFSARISATLQDRHERITKLAGVHALLRKLQFLFELPSRLTKCVELGAYGQAVRYQGRARAVLQQYQHLPSFRAIQDDCQVITARLAQQLRQRFREGCSGAPEQAECVELLLALGEPAEELCEEFLAHARGRLEEELSSLETELGPSPPAPDVLEFTDRGGNGFVGGLCQVAAAYQELFAAQGPAGAEKLAAFAQELGGRYFALVERRLAQEQGGSDNSLLVRALDRFHRRLRAPGALLAAAGLSESATEIVERVARERLSHHLQGLKAAFLSCLTDVRQALAAPRLAGKEGPSLAELLANVASSILSHIKASLASVHLFTAKEVSFSNKPYFRGEFCSQGVREGLIVGFIRSMCQTAQGFCDSPGEKGGATPPALLLLLSRLCLDYETATISYILTLTDEQFLVQDQSPVTPVSTLCAEARETARRLLTHYVKVQGLVISQMLRKSVETRDWLSTLEPRNVRAVMKRVVEDTTAIDVQVGLLYEEGVRKAQSSDSSKRTFSVYSSSRQQGRYAPSYTPSAPMDTNLLSNIQKLFSERIDVFSPVEFNKVSVLTGIIKISLKTLLECVRLRTFGRFGLQQVQVDCHFLQLYLWRFVADEELVHLLLDEVVASAALRCPDPVPMEPSVVEVICERG
B2: VPS54 (protein, UniProt Q9JMK8 1-965)
chain: MASSHSSSPVPQGSSSDVFFKKEVDPTKHVRPVQSLPDVCPKEPTVTDQHRWTVYHSKVNLPAALNDPTLAKRESDFFTKTWGLGFVDTEVIPSLYLPQISKEHFIAYQQEISQREKIHERCKNICPPKDTFDRTLLHIHDKSRTDLEQVPKIFMKPDFALDDSLTFNSVLPWSHFNTAGGKGNRDAASSKLLQEKLSHYLDIVEVNIAHQISLRSEAFFHAMTSQHELQDYLKKTSQAVKMLRDKIAQIDKVMCEGSLQILRLALTRNNCVKVSNKLKLMATVHQTQPTVQVLLSTSEFVGALDLIATTQEVLQQELQGVHSFRHLGSQLCELEKLIDKMMIAEFSTYSHSDLNRPLEGECQVLEEERLVSLVFGLLEQRKLNFLEIYGEETIITAKNIIKECVINKVAQVEEIDTDAVVKLADQMRMLNFPQWIDLLKDIFSKFTIFLQRVKATLNVIHSVVLSVLDKNQRTRELEEVSQQRSAGKDNSLDTEVAYLTHEGLFISDAFSEAEPASAAVDTTSQRNTSPHSEPCSSDSVSEPECTTDSSSSKEQTPASATLGGVDIIVSEDMRLTDLELGKLASNIQELLCNASDVCHDRAVKFLMSRAKDGFLEKLNSTEFIALSRLMETYIVDTEQICGRKSTSLLGALQSQANKFVNRFHEERRTKLSLLLDNERWKQADVPAEFQDLVDSIADGKIALPDKKPAATEDRKPADVLVVEGHQYAVVGTVLLLIRIILEYCQCVDNIPSVTTDMLTRLTDLLKYFNSRSCQLVLGAGALQVVGLKTITTKNLALSSRCLQLIVHYIPVIRAHFEARLPRKQWSLLRHFDHITKDYHDHIGEISSKLIAIMDSLFDKLLSRCEVEAPAPSPCFRNICKQMTKMHEAIFDLLPKEQTQMLILRINASYKFHLKKQLSHLNVINDGGPQSGFVTADVAFYTGNLQALKGLKDLDLNMAEIWEQKR
B3: SNAP29 (protein, UniProt Q9Z2P6 1-257)
chain: MSGYPKSYNPFDDDVEDEDTRPAPWKDARDLPDGPDPPIDRQQYLRQEVLRGPSATAASTSRSLFLMYESEKIGVASSEELVRQRGVLEHTEKMVDKMDQDLKMSQKHINSIKSVFGGFINYFKSKPVEPPPEQNGSIVPQPSSRLKEAINTSKDQESKYQASHPNLRRLHDAELDSVPASTVNTEVYPKNSSLRAYHQKIDSNLDELSVGLGRLKDIALGMQTEIEEQDDILDRLTTKVDKLDVNIKSTEKKVRQL

Biological target: T1, EGFP-tagged rat EIPR1 (rat) (UniProt Q5PPK9)
T1 sequence: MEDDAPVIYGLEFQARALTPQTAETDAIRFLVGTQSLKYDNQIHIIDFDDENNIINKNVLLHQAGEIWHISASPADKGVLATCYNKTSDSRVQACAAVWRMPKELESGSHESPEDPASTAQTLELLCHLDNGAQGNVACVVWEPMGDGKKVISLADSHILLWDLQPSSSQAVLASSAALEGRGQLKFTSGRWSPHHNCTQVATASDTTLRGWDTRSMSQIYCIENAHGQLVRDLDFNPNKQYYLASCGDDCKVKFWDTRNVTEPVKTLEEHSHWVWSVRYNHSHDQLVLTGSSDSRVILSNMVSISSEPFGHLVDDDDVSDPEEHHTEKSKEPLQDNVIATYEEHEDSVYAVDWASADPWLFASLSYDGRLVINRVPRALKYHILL
Test: affinity purification with mass spectrometry; EIPR1::GFP or GFP transfected into 832/13 cells; lysis in 50 mM Tris pH 7.5, 150 mM NaCl, 1% NP-40; captured on anti-GFP nanobody magnetic beads 2 h at 4°C; washes with 300 mM NaCl, 1% NP-40; hits of GFP control (or CCCP1::GFP and RUNDC1::GFP) pulldowns subtracted; two independent pulldowns

binding, binds:
B1, B2, B3

No constants are given. Whether binding was seen depends on the method and setting. Binding seen in cells or lysates may run through a third protein. These calls come from enrichment with a bait or labelling near it, and not all partners need be listed. Where a sequence is shown, tags or fusion partners need not be part of it.
